Results reported in paper PMC11473679.
No constants are given. Whether binding was seen depends on the method and setting. In cells and extracts the contact can be indirect. Some binding calls cover weakened binding; strength is not graded here. For some of these results: Tags and fused reporters may be left off the sequences shown.

Sequences of proteins named here, by UniProt entry; tags and fusion partners are left off. Residues count along the entry.
UniProt Q8BMS1, residues 37-763: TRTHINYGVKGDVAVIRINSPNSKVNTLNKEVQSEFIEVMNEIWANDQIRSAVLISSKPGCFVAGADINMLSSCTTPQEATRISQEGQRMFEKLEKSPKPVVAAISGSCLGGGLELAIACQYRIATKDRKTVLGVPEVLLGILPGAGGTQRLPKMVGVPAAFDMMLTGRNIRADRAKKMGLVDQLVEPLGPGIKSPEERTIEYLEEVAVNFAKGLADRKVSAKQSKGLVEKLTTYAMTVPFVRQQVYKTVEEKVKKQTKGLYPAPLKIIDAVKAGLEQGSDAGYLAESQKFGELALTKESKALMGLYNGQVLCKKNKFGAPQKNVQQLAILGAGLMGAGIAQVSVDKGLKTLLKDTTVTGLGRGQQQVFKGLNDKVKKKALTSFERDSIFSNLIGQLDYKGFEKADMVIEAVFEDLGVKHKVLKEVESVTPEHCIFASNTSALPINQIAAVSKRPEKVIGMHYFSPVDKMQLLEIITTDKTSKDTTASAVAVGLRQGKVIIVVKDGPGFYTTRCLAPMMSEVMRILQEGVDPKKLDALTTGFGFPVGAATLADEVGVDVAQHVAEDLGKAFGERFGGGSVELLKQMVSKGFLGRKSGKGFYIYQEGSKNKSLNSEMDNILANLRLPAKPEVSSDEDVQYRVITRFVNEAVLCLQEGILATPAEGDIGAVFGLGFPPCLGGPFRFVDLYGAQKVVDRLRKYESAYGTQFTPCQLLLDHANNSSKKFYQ
UniProt P40939, residues 37-763: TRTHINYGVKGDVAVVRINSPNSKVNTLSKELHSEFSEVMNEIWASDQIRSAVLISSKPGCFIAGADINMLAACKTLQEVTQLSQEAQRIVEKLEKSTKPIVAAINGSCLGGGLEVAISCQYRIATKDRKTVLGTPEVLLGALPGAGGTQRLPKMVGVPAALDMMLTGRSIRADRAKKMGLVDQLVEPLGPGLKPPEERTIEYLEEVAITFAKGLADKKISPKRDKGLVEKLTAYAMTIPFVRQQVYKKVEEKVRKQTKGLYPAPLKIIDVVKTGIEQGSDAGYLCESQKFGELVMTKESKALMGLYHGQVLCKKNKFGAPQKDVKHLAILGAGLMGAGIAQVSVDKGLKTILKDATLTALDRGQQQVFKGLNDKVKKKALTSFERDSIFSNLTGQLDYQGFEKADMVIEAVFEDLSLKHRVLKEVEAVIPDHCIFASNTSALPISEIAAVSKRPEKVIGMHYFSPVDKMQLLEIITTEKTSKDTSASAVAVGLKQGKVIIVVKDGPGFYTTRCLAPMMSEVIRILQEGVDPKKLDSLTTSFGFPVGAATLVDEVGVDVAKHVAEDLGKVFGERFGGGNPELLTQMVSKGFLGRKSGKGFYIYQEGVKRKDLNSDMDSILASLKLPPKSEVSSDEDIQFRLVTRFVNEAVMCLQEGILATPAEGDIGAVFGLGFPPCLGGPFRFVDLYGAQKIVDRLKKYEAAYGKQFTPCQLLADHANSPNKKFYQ

B1: β subunit of the mitochondrial trifunctional protein (mouse) (protein, UniProt Q99JY0 35-475)
chain: SAPAVQTKSKKTLAKPNMKNIVVVEGVRIPFLLSGTSYKDLMPHDLARAALSGLLHRTNIPKDVVDYIIFGTVIQEVKTSNVAREAALGAGFSDKTPAHTVTMACISSNQAMTTAVGLIASGQCDVVVAGGVELMSDVPIRHSRNMRKMMLDLNKAKTLGQRLSLLSKFRLNFLSPELPAVAEFSTNETMGHSADRLAAAFAVSRMEQDEYALRSHSLAKKAQDEGHLSDIVPFKVPGKDTVTKDNGIRPSSLEQMAKLKPAFIKPYGTVTAANSSFLTDGASAMLIMSEDRALAMGYKPKAYLRDFIYVSQDPKDQLLLGPTYATPKVLEKAGLTMNDIDAFEFHEAFSGQILANFKAMDSDWFAQNYMGRKTKVGSPPLEKFNIWGGSLSLGHPFGATGCRLVMAAANRLRKDGGQYALVAACAAGGQGHAMIVEAYPK

How the values were obtained:
[1] = target: T1, Melusin (mouse, endogenous in wild-type heart) (mouse (endogenous in heart)) (UniProt Q9R000); test: co-IP; Melusin immunoprecipitation from about 1 mg cardiac total extract of wild-type mice (Mel null as control); anti-Melusin antibody on CNBr-Sepharose beads, overnight at 4 °C; IP buffer 25 mM Tris-HCl pH 8, 1 mM MgCl2, 10% glycerol; immunoblot
T1 sequence: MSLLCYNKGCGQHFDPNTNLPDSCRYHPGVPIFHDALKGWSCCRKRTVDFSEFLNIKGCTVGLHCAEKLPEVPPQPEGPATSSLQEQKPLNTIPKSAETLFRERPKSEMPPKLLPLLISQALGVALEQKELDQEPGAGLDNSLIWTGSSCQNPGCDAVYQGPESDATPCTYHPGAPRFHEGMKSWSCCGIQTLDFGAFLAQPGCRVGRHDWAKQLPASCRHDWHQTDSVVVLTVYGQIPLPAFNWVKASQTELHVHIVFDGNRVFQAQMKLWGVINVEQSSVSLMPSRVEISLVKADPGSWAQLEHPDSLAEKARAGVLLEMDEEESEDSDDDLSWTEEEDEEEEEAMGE

[2] = target: T2, Myc-Melusin (pLVX lentivirus, in AC16 cells) (human) (UniProt Q9UKP3); test: proximity ligation; Duolink In Situ Red kit; AC16 cells expressing Myc-Melusin (empty as control), fixed and permeabilised; mouse anti-Myc tag and rabbit anti-HADHA
T2 sequence: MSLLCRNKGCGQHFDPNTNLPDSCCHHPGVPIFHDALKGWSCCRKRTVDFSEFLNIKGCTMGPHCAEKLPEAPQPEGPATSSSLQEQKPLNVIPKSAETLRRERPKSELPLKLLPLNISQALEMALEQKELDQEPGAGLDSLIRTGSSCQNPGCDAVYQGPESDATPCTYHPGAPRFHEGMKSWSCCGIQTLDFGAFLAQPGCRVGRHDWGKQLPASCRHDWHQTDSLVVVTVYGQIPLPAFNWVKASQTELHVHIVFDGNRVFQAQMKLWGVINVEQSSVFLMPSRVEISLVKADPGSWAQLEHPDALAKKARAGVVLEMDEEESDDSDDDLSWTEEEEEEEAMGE

[3] = target: T3, Myc-Melusin (AAV6, in Mel null hiPSC-CMs) (UniProt Q9UKP3); test: proximity ligation; Duolink In Situ Red kit; Mel null hiPSC-CMs infected with AAV6-MycMel (AAV6-empty as control), fixed and permeabilised; mouse anti-Myc tag and rabbit anti-HADHA
T3 sequence: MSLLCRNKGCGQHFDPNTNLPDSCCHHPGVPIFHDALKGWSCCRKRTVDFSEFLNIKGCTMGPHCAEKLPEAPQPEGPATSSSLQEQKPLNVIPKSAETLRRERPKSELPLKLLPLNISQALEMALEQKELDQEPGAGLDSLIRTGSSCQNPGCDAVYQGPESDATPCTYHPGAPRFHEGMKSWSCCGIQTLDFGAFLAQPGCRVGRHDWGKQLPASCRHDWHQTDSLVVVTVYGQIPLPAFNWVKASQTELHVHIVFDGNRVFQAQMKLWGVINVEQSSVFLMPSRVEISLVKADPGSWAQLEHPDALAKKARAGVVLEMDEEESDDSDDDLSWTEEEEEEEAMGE

Molecule	binding [1]	binding [2]	binding [3]
α subunit of the mitochondrial trifunctional protein (mouse) (from UniProt Q8BMS1 37-763)	binds	–	–
α subunit of the mitochondrial trifunctional protein (human) (from UniProt P40939 37-763)	–	binds	binds
B1	binds	–	–
